For series [1], the system named is NF-kappaB (nuclear extract of H9c2 cells, AngII-, H2O2- or TNF-alpha-treated) (Rattus norvegicus). Nature of the series: EMSA. The following applies: 30 ug nuclear extract, on ice; binding induced by AngII or H2O2, blocked by CAPE, competed by 200-fold unlabeled probe; protein in an extract; label: biotin 3' end (biotin-N4-CTP). For orientation: A gel shift assay detects complexes by their altered migration in electrophoresis.

Series [2] shares this test system. The series can be described thus: competition with a labelled probe. The following applies: unlabeled mutant probe did not inhibit AngII-induced binding; protein in an extract; variant of scn5a promoter NF-kappaB probe.

The exact form of at least one protein or probe is not confirmed. Results from cells or extracts need not show a direct contact. For some assays here: A negative result means that nothing was seen under these conditions.

On to “GGTGCTGCACTCAGGGGATCCCTATGAGATCCTC (double strand) [scn5a promoter NF-kappaB probe]”, for which, in series [1], the binding result was “binds”.
Regarding “GGTGCTGCACTCAGGCCATCCCTATGAGATCCTC (double strand) [scn5a promoter NF-kappaB mutant probe]”, in series [2], the binding result was “no binding”.
